Results from paper PMC7821884, “BRAF inhibition protects against hearing loss in mice” (Science Advances, 2020).

test system: P3-P4 FVB mouse cochlear explants; parameters: method as in PMID 29514916, PMID 9303151; settings: identical P3 FVB explant model; cited from earlier work

Structure (SMILES)	TI
CSCC[C@@H](N)C(=O)O [D-methionine]	1.0
O=S([O-])([O-])=S.[Na+].[Na+] [STS, sodium thiosulfate]	285
C[C@@H]1C[C@H]2[C@@H]3CCC4=CC(=O)C=C[C@]4(C)[C@@]3(F)[C@@H](O)C[C@]2(C)[C@@]1(O)C(=O)CO [dexamethasone]	20
O=c1c2ccccc2[se]n1-c1ccccc1 [ebselen]	1.4
O=C1Cc2c([nH]c3ccc(Br)cc23)-c2ccccc2N1 [kenpaullone]	150

test system: P3-P4 FVB mouse cochlear explants; settings: not given

Structure (SMILES)	therapeutic index (TI), LD50/IC50
COC[C@H]1Cn2cc(-c3nc(Nc4ccnn4C)ncc3C)nc2C(=O)N1Cc1ccc(F)c(F)c1 [AZD0364]	200.0
CCCS(=O)(=O)Nc1ccc(F)c(C(=O)c2c[nH]c3ncc(Cl)cc23)c1F [PLX-4720]	12.0
Cn1c(Nc2ccc(C(F)(F)F)cc2)nc2cc(Oc3ccnc(-c4ncc(C(F)(F)F)[nH]4)c3)ccc21 [RAF-265]	666.7
CC(=O)Nc1cccc(-n2c(=O)n(C3CC3)c(=O)c3c(Nc4ccc(I)cc4F)n(C)c(=O)c(C)c32)c1 [trametinib]	40.0
CCCS(=O)(=O)Nc1ccc(F)c(C(=O)c2c[nH]c3ncc(-c4ccc(Cl)cc4)cc23)c1F [vemurafenib]	15.0
